Assay results: US20120171115A1 (AVIPEP, published 2012)
No constants are given. Whether binding was seen depends on the method and setting. Some entries that bind do so weakly or less than the wild type.

Legend:
[1] = biological target: recombinant HER2 ectodomain (human) (UniProt P04626); experiment: column shift assay (figure legend)
[2] = biological target: recombinant HER2 ectodomain (human) (UniProt P04626); experiment: column shift assay (gel filtration), soluble antigen
[3] = biological target: recombinant HER2 ectodomain (human) (UniProt P04626); experiment: column shift assay: gel filtration monitored at A280, diabody pre-incubated with recombinant HER2 ectodomain

binding [1]: binds | binding [2]: binds | binding [3]: binds
B1: AVP07-63 anti-HER2 diabody with cysteine replacement mutations in VL FR1 (Kabat 8 and 12) and an engineered N-terminal serine (protein)
chain: SVQLVQSGAEVKKPGESLKISCKGSGYSFTSYWIAWVRQMPGKGLEYMGLIYPGDSDTKYSPSFQGQVTISVDKSVSTAYLQWSSLKPSDSAVYFCARHDVGYASSSNAAKWPEYFQHWGQGTLVTVSSGGGGSQSVLTQPCSSCAAPGQKVTISCSGSSSNIGNNYVSWYQQLPGTVPKLLIYGHTNRPAGVPDRFSGSKSGTSASLAISGFRSEDEADYYCAAWDDSLSGWVFGGGTKLTVLGAAAEQKLISEEDLNGAAHHHHHH
